Measured values: US20250194651A1, “STEVIOL GLYCOSIDE CONCENTRATES AND HIGHLY SOLUBLE STEVIOL GLYCOSIDES” (CARGILL, INCORPORATED, priority 2022, published 2025)
For at least one compound, name, drawing or mass did not settle the structure.

Assay: Initial solubility in aqueous solution (visual dissolution on heating)
Format: physicochemical
Details: purified water, heated to 85° C.
Procedure: Solutions were prepared by mixing one or more steviol glycoside component in purified water at ambient temperature. Solubility enhancers, preservatives, or ethanol were included only where expressly indicated and, when used, were added to the initial mixture prior to heating and dissolution. The mixtures were premixed and then subsequently heated via heat block or oven. Solutions took approximately one or two minutes to reach the target temperature, and then were maintained at the target temperature at least until complete dissolution of solids. Dissolution of solids was monitored visually during heating. After the heating period, fully dissolved solutions were permitted to cool to room temperature and were monitored for initial precipitation.
Various individual steviol glycosides were tested to evaluate initial solubility in aqueous solution as well as the long-term stability in solution. Ingredients were combined in purified water at room temperature then heated to 85° C. with a heating block to effect dissolution. […]

| Structure (SMILES) | Soluble? (0.48% DS (Reb D), 0.5% DS (Total)) | Soluble? (0.48% DS) | Soluble? (0.49% DS) |
| --- | --- | --- | --- |
| C=C1C[C@@]23CC[C@H]4[C@@](C)(CCC[C@@]4(C)C(=O)O[C@@H]4O[C@H](CO)[C@@H](O)[C@H](O)[C@H]4O[C@@H]4O[C@H](CO)[C@@H](O)[C@H](O)[C@H]4O)[C@@H]2CC[C@]1(O[C@@H]1O[C@H](CO)[C@@H](O)[C@H](O[C@@H]2O[C@H](CO)[C@@H](O)[C@H](O)[C@H]2O)[C@H]1O[C@@H]1O[C@H](CO)[C@@H](O)[C@H](O)[C@H]1O)C3 [D, rebaudioside D] | Y | Y |  |
| C=C1C[C@@]23CC[C@H]4[C@@](C)(CCC[C@@]4(C)C(=O)O[C@@H]4O[C@H](CO)[C@@H](O)[C@H](O)[C@H]4O[C@@H]4O[C@H](CO)[C@@H](O)[C@H](O)[C@H]4O)[C@@H]2CC[C@]1(O[C@@H]1O[C@H](CO)[C@@H](O)[C@H](O)[C@H]1O[C@@H]1O[C@H](CO)[C@@H](O)[C@H](O)[C@H]1O)C3 [E, rebaudioside E] |  |  | Y |
